Assay results reported in publication PMC9017425, “Integrative Analysis of Pharmacokinetic and Metabolomic Profiles for Predicting Metabolic Phenotype and Drug Exposure Caused by Sotorasib in Rats” (Frontiers in Oncology, 2022).

Test system: plasma metabolites
Assay: Transversal pharmacometabolomics of sotorasib in rat plasma (pre-dose vs post-dose)
Assay type: in vivo, Sprague–Dawley rats
Conditions: rats, oral 10 mg/kg
Procedure: For metabolic profiling analysis, the HPLC-MS/MS system (Spark Holland; API 5500, SCIEX, Concord, Canada) was adopted for targeted metabolomic analysis. The chromatography columns (Waters BEH, HSS T3) and elution solvent (gradient elution) were all evaluated and employed according to our previous study ([18]). The column temperature was set at 20°C with an injection volume of 5 μl. The water and organic phases (ACN/IPA = 7:2, v/v) contained 0.1% formic acid, and gradient elution was achieved within 27 min. The detailed optimized MRM parameters are shown in Supplementary Table S1 and in a previous study ([18]). For the analysis of the metabolic characteristics, a one-step protein precipitation method was also employed. Briefly, an aliquot of 50 μl plasma was added with 10 μl IS mixture (eight ISs, 400 ng/ml) and 140 μl precipitation solution (−20°C methanol). Afterward, the mixture was vortexed for 2 min and centrifuged (13,500 rpm, 10 min at 4°C). The upper solutions were injected into the HPLC-MS/MS system for analysis. A total of 289 metabolites, which contained amino acids, bile acids, and vitamins, were included in the metabolomics method being considered. All biologically active metabolites can be quantitated within 27 min. The calculation linearity ranged from 0.2 to 5,000 ng/ml, which provided powerful capability for the successful quantitation of low-abundance compounds. For the longitudinal PM of sotorasib, the same plasma samples were utilized before (0 h, pre-dose) and after administration (post-dose, until 8 h). For the transversal PM, raw metabolomic data were divided into two parts: before (pre-dose) and after (post-dose) administration. The metabolomic profiling and trajectory effects of sotorasib were investigated and analyzed using multiple variable statistical analysis methods. Raw data files were processed and checked using Analyst 1.6.3 and MultiQuant 3.0.1 (SCIEX, Concord, Canada). The concentrations of the analytes were calculated according to the calibration curve. Pharmacokinetic parameters, such as C max and the area under the curve (AUC), were calculated using Phoenix WinNonLin software (Pharsight 8.3, Mountain View, CA, USA). Pearson’s correlation was employed to investigate the correlation between the metabolomic data and PK parameters using IBM SPSS 26.0 (Armonk, NY, USA). SIMCA-P software (v14.1; Umetric, Umeå, Sweden) was employed to build mathematical models, including unsupervised principal component analysis (PCA), supervised orthogonal projection to latent structures discriminant analysis (OPLS-DA), and partial least squares (PLS). Compounds with values of variable importance in the projections (VIP) >1 and statistical significance of p < 0.05 were selected for further identification and metabolic pathway analysis. […]

## C=CC(=O)N1CCN(c2nc(=O)n(-c3c(C)ccnc3C(C)C)c3nc(-c4c(O)cccc4F)c(F)cc23)[C@@H](C)C1 [Sotorasib]
plasma
  number of significantly changed metabolites between pre- and post-dose: 67
plasma, most significant: taurine and hypotaurine metabolism
  number of metabolic pathways disturbed: 19
VIP >1, FC <0.5, p < 0.05
  number of metabolites downregulated after dosing: 11
VIP >1, FC >2, p < 0.05
  number of metabolites upregulated after dosing: six
